In PubChem BioAssay AID1347075 (National Center for Advancing Translational Sciences (NCATS), 2019):
The whole screen tested about 400,000 compounds, of which about 5,500 (1.4%) were called active. The shares of active, inactive and inconclusive entries below differ from those in the screen. Calls follow the shape of the dose curve; as a rule, active = well fitted cell-killing curve with a large enough effect; inconclusive = small, poorly fitted or top-dose-only effect, or effect the other way; inactive = flat fitted curve, though single readings scatter. Where the call is inconclusive, the potency comes from a doubtful curve fit.

Test: qHTS assay for MDR1-selective chemotherapeutics: Primary screen using the parental adenocarcinoma cell KB-3-1; also: nearly all actives have a fitted effect of over 60% in size
Conditions: KB-3-1 viability, CellTiter-Glo ATP luminescence, 72 h; activity change, negative = cytotoxic: at 46.1 µM (top of the series)
Procedure, shortened: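 Cytotoxicity in the drug-sensitive parental line KB-3-1 was scored as loss of CellTiter-Glo luminescence following 72 h incubation with compound. Values come from curve fitting of normalized concentration-response data.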
% is scaled to controls: 0 for no effect and ±100 for the full control effect; potency is read from the fitted curve at half-maximal effect.

| Structure (SMILES) | Potency | activity change, negative = cytotoxic |
| --- | --- | --- |
| Cc1ccc(-n2cc(S(=O)(=O)c3ccc(C)cc3)[nH]c2=O)cc1 | inactive |  |
| CCC(Sc1nc2cc3c(cc2c(=O)n1Cc1ccco1)OCO3)C(=O)Nc1cccc(OC)c1 (configuration not stated) |  | inconclusive: -8.69% |
| Cc1cccc(CSc2nc3ccncc3n2CC(=O)Nc2cc(C)cc(C)c2)c1 | inactive |  |
| CC(C)c1ccc(NC(=O)CCCc2nc(-c3ccc(Cl)cc3)no2)cc1 | inactive |  |
| COc1cccc(NC(=O)CN(C)C(=O)/C=C/c2cn(Cc3ccccc3)nc2-c2cccnc2)c1 | inactive |  |
| OC[C@@H]1CN(Cc2ccc(-c3ccccc3)cc2)C[C@H](n2cnc3c(NCc4ccco4)ncnc32)O1 | inconclusive: 29.1 µM [cytotoxic, single point] |  |
| COc1ccc(-c2noc(CN(C)S(=O)(=O)c3ccccc3)n2)cc1OC | inactive |  |
| O=C(CN1CCCCC1)N1CCc2ccccc21 | inactive |  |
| Cc1c(C(=O)NCCC2=CCCCC2)oc2ccc(S(=O)(=O)N3CCC4(CC3)OCCO4)cc12 | inconclusive: 18.4 µM [cytotoxic, partial curve] |  |
| CC(=O)c1ccc(NC(=O)COC(=O)c2c[nH]c3ccccc23)cc1 | inconclusive: 16.4 µM [rising, partial curve] |  |
| COc1ccc(C(=O)c2[nH]c(N)c(C(=O)NCCc3c[nH]c4ccccc34)c2-c2ccc(OC)c(OC)c2)cc1 | inconclusive: 18.4 µM [cytotoxic, single point] |  |
| COc1cccc(/C=N/NC(=O)c2[nH]c(C)c(C(=O)N/N=C/c3cccc(OC)c3O)c2C)c1O | inconclusive: 29.1 µM [cytotoxic, single point] |  |
| COc1ccc(NS(=O)(=O)c2csc(C(=O)Nc3ccccc3)c2)cc1 | inconclusive: 29.1 µM [cytotoxic, single point] |  |
| CCCN(CCC)C(=O)Cc1coc2ccc3ccccc3c12 | inactive |  |
| O=C1c2cccc3c(N4CCCCC4)ccc(c23)C(=O)N1c1ccccc1O | inactive |  |
| Cc1nn(-c2ccccc2)c(C)c1/C=N/Nc1nc2ccccc2[nH]1 | inconclusive: 29.1 µM [cytotoxic, single point] |  |
| Nc1cc(Cl)ccc1C(=O)OCC(=O)NC1CCCCCCC1 | inactive |  |
| COc1ccc(S(=O)(=O)N2CCN(Cc3ccc4c(c3)OCO4)CC2)cc1OC | inactive |  |
| O=S(=O)(Nc1nc2ccccc2nc1NCc1ccco1)c1ccc(Cl)cc1 | inconclusive: 29.1 µM [cytotoxic, single point] |  |
| CCCCC(NC(=O)Cc1c(C)c2cc3c(-c4ccccc4)coc3c(C)c2oc1=O)C(=O)O (configuration not stated) | inactive |  |
| CN1OC[C@@H]2CN[C@H](c3ccc(-c4ccc(C#N)cc4)cc3)C[C@@H]21 | inactive |  |
| Cc1cc(C(=O)N[C@H](c2ccccc2)[C@@]2(C)C[C@@H]2[C@@H](C)C(=O)Nc2ccc3ccccc3c2)n(C)n1 | inconclusive: 29.1 µM [cytotoxic, single point] |  |
| CC(C)(C)c1ccc(C(=O)C[n+]2cccc3cc(Cl)ccc32)cc1 | inconclusive: 20.6 µM [cytotoxic, single point] |  |
| O=C(COC(=O)COc1ccc(Cl)cc1)Nc1cccnc1Cl | inactive |  |

Of the compounds above, these have an aryl thioether with sulfur outside any ring.

| Structure (SMILES) | Potency | activity change, negative = cytotoxic |
| --- | --- | --- |
| CCC(Sc1nc2cc3c(cc2c(=O)n1Cc1ccco1)OCO3)C(=O)Nc1cccc(OC)c1 (configuration not stated) |  | inconclusive: -8.69% |
| Cc1cccc(CSc2nc3ccncc3n2CC(=O)Nc2cc(C)cc(C)c2)c1 | inactive |  |

The list continues.

| Structure (SMILES) | Potency | activity change, negative = cytotoxic |
| --- | --- | --- |
| Cc1onc(CO)c1C(=O)Nc1nccs1 |  | inconclusive: -6.29% |
| O=C(CSc1ccccc1)NCc1ccc2c(c1)CCN2C(=O)c1ccc(F)cc1 | inactive |  |
| CC(C)(C)n1cnc(C(N)=O)c1N | inconclusive: 29.1 µM [rising, single point] |  |
| Cc1ccccc1N1CC(O)(c2ccccc2)[N+]2=C1SCC2 (configuration not stated) | inactive |  |
| Fc1ccc2[nH]c3c(NCc4ccco4)ncnc3c2c1 | inconclusive: 3.66 µM [cytotoxic, partial curve, poor fit] |  |
| Cc1ccc(Cl)cc1NS(=O)(=O)c1ccc2c(c1)NC(=O)C(C)C(=O)N2 (configuration not stated) |  | inconclusive: -2.83% |
| O=C1COc2cc(S(=O)(=O)CCC(=O)N3CCN(c4cccc(Cl)c4)CC3)c(Cl)cc2N1 | inconclusive: 29.1 µM [cytotoxic, single point] |  |
| O=C(COC(=O)C1C2CC3OC(=O)C1C3C2)Nc1cccc(Cl)c1 (configuration not stated) | inconclusive: 25.9 µM [rising, single point] |  |
| CNc1cc(-c2cccc(OC)c2F)nc2ccnn12 | inactive |  |
| O=C(CCS(=O)(=O)Cc1ccccc1)Nc1nncs1 | inactive |  |
| Cc1ccc(CN2CCSc3ccc(C(=O)NCCCN4CCOCC4)cc32)cc1 | inactive |  |
| CNC(=S)N(CCc1c(C)[nH]c2ccccc12)Cc1cccnc1 | inconclusive: 9.2 µM [cytotoxic, partial curve] |  |
| COc1ccc(CNCc2c(C(=O)O)c(C)n(Cc3ccc(Cl)cc3)c2C)c(OC)c1 | inactive |  |
| C=CCC[C@H](Cc1ccc(F)cc1)C(=O)OC[C@@H](NC(=O)[C@@H](CC=C)CC(=O)N[C@H](CO)Cc1ccccc1)C(C)(C)C | inconclusive: 29.1 µM [cytotoxic, single point] |  |
| Oc1[nH]c(N=C2N=c3ccccc3=N2)c2ccccc12 | inconclusive: 14.6 µM [cytotoxic, partial curve, poor fit] |  |
| NC1=NC[C@@H](Cc2ccc(O)cc2)N1CCCCC1CCCCC1 | inconclusive: 23.1 µM [cytotoxic, single point] |  |
| Cc1ccc(Cc2nc3ccccc3nc2SCC(=O)Nc2cccc(C(F)(F)F)c2)cc1 | inactive |  |
| O=C(CCNC(=O)c1ccc(Cl)cc1)Nc1ccccc1N1CCCC1 |  | inconclusive: -8.98% |
| CC(C)c1cc(C(C)C)c(S(=O)(=O)NC(c2ccccn2)C23CC2C3)c(C(C)C)c1 (configuration not stated) | inconclusive: 16.4 µM [cytotoxic, single point] |  |
| Cc1cc2c(NC(=O)Nc3ccc(C(C)(C)C)cc3)cccc2nn1 | inconclusive: 18.4 µM [cytotoxic, single point] |  |
| COc1cc(/C=C2\SC(=S)N(NC(C)=O)C2=O)ccc1OC(=O)c1ccco1 | inconclusive: 32.6 µM [rising, partial curve, poor fit] |  |
| CC(=O)c1ccc(N2CCN(S(=O)(=O)c3cccc4nonc34)CC2)cc1 | inactive |  |
| COc1ccc(C2C(C#N)=C(N)Oc3c2sc2nc(C)cc(C)c32)cc1 (configuration not stated) | inconclusive: 29.1 µM [cytotoxic, single point] |  |
